Measured values: PubChem BioAssay AID180 (DTP/NCI, 2004)
The list does not hold the whole screen: it is rich in T/C values a quarter to a half above the control, in often repeated tests (any T/C) and in doses without a T/C. Other doses and runs of a compound stand elsewhere. T/C: endpoint of the treated group in % of that of the vehicle group. Schedules are NCI's codes, read here as Q, the interval in days (D) or hours (H), X, the number of doses. Some T/C values are followed by the survivors on the day toxicity was checked, most often the fifth; without a count, all were alive then. Some entries hold several experiments; their values stand side by side, smallest first. Some entries give survivors of the animals treated and no T/C: the source holds a T/C of zero for them, seemingly a mark for toxic or unscored doses. Survivors were counted at the toxicity check, usually on the fifth day, unless a day is given; later deaths do not show. Some schedules carry Z or #; the key to these is not given.

Test system: BDF1 mice, Adenocarcinoma 755 s.c., tumor weight T/C
Assay: NCI In Vivo Anticancer Drug Screen. Data for tumor model Adenocarcinoma 755 (subcutaneous) in B6D2F1 (BDF1) mice
Details: T/C endpoint: mean tumor weight, higher T/C = larger tumour; for T/C: evaluated on day 12
Outline: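 In vivo antitumor screen on a transplantable tumor line. Result equals the measure in compound-treated animals divided by the same measure in vehicle controls.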

[1] = dose: 240.0 mg/kg/injection, schedule: Q01DX011 (ip), vehicle: carboxymethylcellulose (CMC)
[2] = dose: 50.0 mg/kg/injection, schedule: Q01DX011 (ip), vehicle: methylcellulose (MC)
[3] = dose: 110.0 mg/kg/injection, schedule: Q01DX011 (sc), vehicle: steroid suspending solution

For `C[C@]12CC[C@H](O)C[C@H]1CC[C@@H]1[C@@H]2CC[C@]2(C)[C@@H](C3=CC(=O)OC3)CC[C@]12O`, the survivor count (dose: 50.0 mg/kg/injection, schedule: Q01DX011 (ip), vehicle: carboxymethylcellulose (CMC)) was 1 of 10.
With `C/C(=N/NC(=O)c1ccncc1)c1ccc(Cl)c(Cl)c1` the survivor count (dose: 120.0 mg/kg/injection, schedule: Q01DX011 (ip), vehicle: methylcellulose (MC)) was 6 of 10.
In the case of `CCC(C)Sc1nc(N)nc2c1ncn2C1OC(CO)C(O)C1O` (stereo not drawn), the survivor count (dose: 400.0 mg/kg/injection, schedule: Q01DX011 (ip), vehicle: carboxymethylcellulose (CMC)) is reported as 1 of 10 and the survivor count (dose: 600.0 mg/kg/injection, schedule: Q01DX011 (ip), vehicle: carboxymethylcellulose (CMC)) is reported as 0 of 10.
In the case of `Cc1ccccc1-c1nc2c(N)nc(N)nc2nc1N`, the T/C (dose: 25.25 mg/kg/injection, schedule: Q01DX011 (ip), vehicle: carboxymethylcellulose (CMC)) is reported as 127 % of control and the survivor count (dose: 450.0 mg/kg/injection, schedule: Q01DX011 (ip), vehicle: methylcellulose (MC)) is reported as 6 of 10.
With `C[C@H](CCC(=O)O)[C@H]1CC[C@H]2[C@@H]3[C@H](O)C[C@@H]4C[C@H](O)CC[C@]4(C)[C@H]3C[C@H](O)[C@]12C` (tested in a mixture with another compound) the survivor count (dose: 160.0 mg/kg/injection, schedule: Q01DX011 (ip), vehicle: methylcellulose (MC)) was 3 of 10.
For `CN(C)N=Nc1ccc(-c2ccc(N=NN(C)C)cc2)cc1`, the survivor count (dose: 250.0 mg/kg/injection, schedule: Q01DX011 (ip), vehicle: other) was 4 of 10.
In the case of `CCCOP(=S)(N1CC1)N1CC1`, the survivor count (dose: 27.0 mg/kg/injection, schedule: Q01DX011 (ip), vehicle: methylcellulose (MC)) is reported as 3 of 10.
With `CNC=O` the T/C (dose: 35.3 mg/kg/injection, schedule: Q01DX011 (ip), vehicle: carboxymethylcellulose (CMC)) was 131 % of control, the T/C (dose: 180.0 mg/kg/injection, schedule: Q01DX011 (ip), vehicle: carboxymethylcellulose (CMC)) was 130 % of control and the survivor count (dose: 374.7 mg/kg/injection, schedule: Q01DX011 (ip), vehicle: carboxymethylcellulose (CMC)) was 1 of 10.
For `CSc1ncc(C)c(Nc2ccc(Br)cc2)n1`, the T/C (dose: 62.0 mg/kg/injection, schedule: Q01DX011 (ip), vehicle: methylcellulose (MC)) was 132 % of control [8 of 10 alive], the survivor count (dose: 125.0 mg/kg/injection, schedule: Q01DX011 (ip), vehicle: methylcellulose (MC)) was 5 of 10 and the survivor count (dose: 250.0 mg/kg/injection, schedule: Q01DX011 (ip), vehicle: methylcellulose (MC)) was 1 of 10.
In the case of `FC(F)(F)c1nc(Cl)nc2c1ncn2Cc1ccccc1`, the survivor count [1] is reported as 5 of 10.
`O=C(NC(CO)C(=O)O)C(Cl)Cl` (stereo not drawn) was tested, and the survivor count (dose: 2000.0 mg/kg/injection, schedule: Q01DX011 (ip), vehicle: methylcellulose (MC)) was 4 of 10 and the survivor count (dose: 3000.0 mg/kg/injection, schedule: Q01DX011 (ip), vehicle: methylcellulose (MC)) was 3 of 10.
In the case of `CC(=O)OCC1OC(n2cnc3c(N)ncnc32)C(OC(C)=O)C1OC(C)=O` (stereo not drawn), the T/C (dose: 60.0 mg/kg/injection, schedule: Q01DX011 (ip), vehicle: carboxymethylcellulose (CMC)) is reported as 125 % of control [9 of 10 alive].
With `CCOC(N)=O` the T/C (dose: 125.0 mg/kg/injection, schedule: Q01DX001 (ip), vehicle: saline) was 134 % of control, the survivor count (dose: 500.0 mg/kg/injection, schedule: Q#A X022 (ip), vehicle: saline) was 0 of 10 and the survivor count (dose: 501.0 mg/kg/injection, schedule: Q01DX011 (ip), vehicle: carboxymethylcellulose (CMC)) was 6 of 10. The survivor count (dose: 820.0 mg/kg/injection, schedule: Q01DX011 (ip), vehicle: carboxymethylcellulose (CMC)) was 2 of 9, the survivor count (dose: 1000.0 mg/kg/injection, schedule: Q01DX011 (im), vehicle: saline) was 3 of 10 and the survivor count (dose: 1000.0 mg/kg/injection, schedule: Q01DX011 (ip), vehicle: methylcellulose (MC)) was 3 of 10. For the same molecule, the survivor count (dose: 1000.0 mg/kg/injection, schedule: Q01DX011 (ip), vehicle: saline) was 0 of 10, the survivor count (dose: 1000.0 mg/kg/injection, schedule: Q01DX011 (oral), vehicle: saline) was 4 of 9 and the survivor count (dose: 1000.0 mg/kg/injection, schedule: Q01DX011 (sc), vehicle: saline) was 1 of 10. The survivor count (dose: 1500.0 mg/kg/injection, schedule: Q03DX004 (ip), vehicle: saline) was 3 of 10, the survivor count (dose: 2000.0 mg/kg/injection, schedule: Q01DX011 (oral), vehicle: saline) was 0 of 10 and the survivor count (dose: 3000.0 mg/kg/injection, schedule: Q03DX004 (ip), vehicle: saline) was 0 of 10.
In the case of `O=c1cc2[nH]c(O)cn2c(=O)[nH]1`, the survivor count (dose: 120.0 mg/kg/injection, schedule: Q01DX011 (ip), vehicle: carboxymethylcellulose (CMC)) is reported as 2 of 10 and the survivor count [1] is reported as 0 of 10.
For `NC(=O)OCCI`, the survivor count (dose: 6.25 mg/kg/injection, schedule: Q01DX011 (ip), vehicle: methylcellulose (MC)) was 6 of 10, the survivor count (dose: 12.5 mg/kg/injection, schedule: Q01DX011 (ip), vehicle: methylcellulose (MC)) was 6 of 10 and the survivor count (dose: 25.0 mg/kg/injection, schedule: Q01DX011 (ip), vehicle: methylcellulose (MC)) was 3 of 10. For the same molecule, the survivor count [2] was 6 of 10 and the survivor count (dose: 100.0 mg/kg/injection, schedule: Q01DX011 (ip), vehicle: methylcellulose (MC)) was 3 of 10.
In the case of `CC(=O)[C@@]1(O)CC[C@H]2[C@@H]3C[C@H](C)C4=CC(=O)C=C[C@]4(C)[C@@]3(F)[C@@H](O)C[C@@]21C`, the survivor count (dose: 6.0 mg/kg/injection, schedule: Q#A X011 (sc), vehicle: steroid suspending solution) is reported as 1 of 10, the survivor count (dose: 12.5 mg/kg/injection, schedule: Q#A X011 (sc), vehicle: steroid suspending solution) is reported as 0 of 10 and the survivor count (dose: 25.0 mg/kg/injection, schedule: Q01DX011 (sc), vehicle: steroid suspending solution) is reported as 6 of 10. The survivor count (dose: 25.0 mg/kg/injection, schedule: Q#A X011 (sc), vehicle: steroid suspending solution) was 0 of 10, the survivor count (dose: 50.0 mg/kg/injection, schedule: Q#A X011 (sc), vehicle: steroid suspending solution) was 0 of 10 and the survivor count (dose: 55.0 mg/kg/injection, schedule: Q01DX011 (sc), vehicle: steroid suspending solution) was 5 of 10. The survivor count (dose: 100.0 mg/kg/injection, schedule: Q01DX011 (ip), vehicle: steroid suspending solution) was 5 of 10, the T/C [3] was 12 [7 of 10 alive], 18 [7 of 10 alive], 39 % of control and the survivor count [3] was 4 of 10. For the same molecule, the survivor count (dose: 200.0 mg/kg/injection, schedule: Q01DX011 (sc), vehicle: steroid suspending solution) was 0 of 10 and 4 of 10, the survivor count (dose: 220.0 mg/kg/injection, schedule: Q01DX011 (sc), vehicle: steroid suspending solution) was 1 of 10, 2 of 10, 4 of 10, 7 of 12 and the survivor count (dose: 300.0 mg/kg/injection, schedule: Q01DX006 (iv), vehicle: steroid suspending solution) was 0 of 10. For the same molecule, the survivor count (dose: 300.0 mg/kg/injection, schedule: Q01DX011 (im), vehicle: steroid suspending solution) was 3 of 10, the survivor count (dose: 300.0 mg/kg/injection, schedule: Q01DX011 (sc), vehicle: steroid suspending solution) was 3 of 10 and the survivor count (dose: 400.0 mg/kg/injection, schedule: Q01DX011 (sc), vehicle: steroid suspending solution) was 0 of 10.
In the case of `O=CN(O)CC(=O)O`, the survivor count (dose: 500.0 mg/kg/injection, schedule: Q01DX011 (ip), vehicle: carboxymethylcellulose (CMC)) is reported as 6 of 10.
In the case of `O=S(=O)(F)c1ncnc2nc[nH]c12`, the survivor count [2] is reported as 6 of 10.
With `Nc1nc(SCc2ccc(F)cc2)c2ncn(C3OC(CO)C(O)C3O)c2n1` (stereo not drawn) the T/C (dose: 0.7 mg/kg/injection, schedule: Q01DX011 (ip), vehicle: methylcellulose (MC)) was 147 % of control, the T/C (dose: 1.5 mg/kg/injection, schedule: Q01DX011 (ip), vehicle: methylcellulose (MC)) was 125 % of control and the survivor count (dose: 3.1 mg/kg/injection, schedule: Q01DX011 (ip), vehicle: methylcellulose (MC)) was 6 of 10.
